{
  "source": "patent US11427783B2",
  "about": "“Perfuming compositions” (Firmenich SA, priority 2016, dated 2022)",
  "experiment": "Volatility of perfuming compounds in air",
  "assay_type": "physicochemical",
  "details": "Table 10, perfuming compounds having a woody note",
  "data": [
    {"smiles": "CC(C)CC(=O)O", "note": "[3-METHYLBUTANOIC ACID]", "values": [
      {"measurement": "Volatility (μg/l air)", "value": 1530.76, "unit": "μg/l air"}
    ]}
  ]
}
